PubChem BioAssay AID1259254 | NCATS, 2017
Aim: 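Finding genes that stop cells copying their DNA twice in one cycle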 (primary screen). System: human HCT116 colorectal cancer cells. Knock-down reagent: single siRNA against human genes. Time to read-out: 3 days. Detection: 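Imaged Hoechst DNA stain sorts each cell into a cycle phase by DNA amount; per plate, G2 fraction set to 0% for non-targeting and 100% for GMNN siRNA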. Direction: G2 robust z-score and G2 cells, % of GMNN control: higher = more G2 cells, more excess DNA replication. Rule for the call: 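Active siRNAs have a G2 robust z of 5 or more median absolute deviations over the median, which in these data means about 38% or higher of GMNN control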.
Shown is an unselected part of about 59,000 deposited reagents. Of all reagents, about 1,550 (2.6%) got an active call. 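G2 share is only a proxy for re-replication; each gene was hit by three separate siRNAs, and active genes were retested.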 Reagents against one gene are numbered here. Further read-outs or replicates are left out here. No sequences are given here. The record does not give: the amount of reagent.

Depletion of NCR1 (natural cytotoxicity triggering receptor 1) #1 came out at: G2 robust z-score -0.864; G2 cells, % of GMNN control -3.11; inactive.
NCR1 (natural cytotoxicity triggering receptor 1) #2 scored G2 robust z-score 1.23; G2 cells, % of GMNN control 11.6; inactive.
After knock-down of NCR1 (natural cytotoxicity triggering receptor 1) #3 the results were G2 robust z-score -0.415; G2 cells, % of GMNN control 0.0494; inactive.
With knock-down of PYGM (glycogen phosphorylase, muscle associated) #1 the results were G2 robust z-score 0.159; G2 cells, % of GMNN control 4.09; inactive.
Knock-down of PYGM (glycogen phosphorylase, muscle associated) #2 resulted in: G2 robust z-score 1.41; G2 cells, % of GMNN control 12.9; inactive.
For PYGM (glycogen phosphorylase, muscle associated) #3 the deposit lists G2 robust z-score 0.0611; G2 cells, % of GMNN control 3.4; inactive.
After knock-down of LILRB5 (leukocyte immunoglobulin like receptor B5) #1, the screen gave G2 robust z-score -0.806; G2 cells, % of GMNN control -2.7; inactive.
With knock-down of LILRB5 (leukocyte immunoglobulin like receptor B5) #2 the results were G2 robust z-score -0.912; G2 cells, % of GMNN control -3.45; inactive.
After knock-down of LILRB5 (leukocyte immunoglobulin like receptor B5) #3 the results were G2 robust z-score -0.857; G2 cells, % of GMNN control -3.06; inactive.
Against STK36 (serine/threonine kinase 36) #1, the entry reads G2 robust z-score -0.522; G2 cells, % of GMNN control -0.702; inactive.
STK36 (serine/threonine kinase 36) #2 gave G2 robust z-score -0.712; G2 cells, % of GMNN control -2.04; inactive.
STK36 (serine/threonine kinase 36) #3 scored G2 robust z-score -0.0102; G2 cells, % of GMNN control 2.9; inactive.
